No constants are given. Whether binding was seen depends on the method and setting. Binding seen in cells or lysates may run through a third protein. Binding calls can cover weak binding; strength is not graded here.
What was measured:
[1] = target: UBQLN1 (human (endogenous in HCT116)) (UniProt Q9UMX0); experiment: co-IP
[2] = target: UBQLN2 (human (endogenous in HCT116)) (UniProt Q9UHD9); experiment: co-IP

By UniProt entry, the sequences of proteins in these tests, tags left out. Where a name states a change or a piece, a line headed by the entry shows the natural chain unless it says otherwise.
UniProt Q9UMX0: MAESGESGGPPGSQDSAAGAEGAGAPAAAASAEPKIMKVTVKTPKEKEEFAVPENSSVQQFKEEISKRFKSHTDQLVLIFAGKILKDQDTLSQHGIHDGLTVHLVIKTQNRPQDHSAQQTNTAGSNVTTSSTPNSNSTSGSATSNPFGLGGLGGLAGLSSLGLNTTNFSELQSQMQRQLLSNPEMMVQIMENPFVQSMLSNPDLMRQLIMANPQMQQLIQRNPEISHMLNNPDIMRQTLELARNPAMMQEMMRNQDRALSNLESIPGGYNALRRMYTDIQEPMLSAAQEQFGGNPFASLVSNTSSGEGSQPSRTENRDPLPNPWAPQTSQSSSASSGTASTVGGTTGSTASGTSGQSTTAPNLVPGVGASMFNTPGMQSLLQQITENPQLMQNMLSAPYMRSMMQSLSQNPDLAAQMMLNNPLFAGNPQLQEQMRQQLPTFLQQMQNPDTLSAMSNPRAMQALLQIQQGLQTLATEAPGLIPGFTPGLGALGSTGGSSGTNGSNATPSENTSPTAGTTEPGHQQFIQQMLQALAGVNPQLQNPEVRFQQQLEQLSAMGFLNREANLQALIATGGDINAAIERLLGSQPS
UniProt Q9UHD9: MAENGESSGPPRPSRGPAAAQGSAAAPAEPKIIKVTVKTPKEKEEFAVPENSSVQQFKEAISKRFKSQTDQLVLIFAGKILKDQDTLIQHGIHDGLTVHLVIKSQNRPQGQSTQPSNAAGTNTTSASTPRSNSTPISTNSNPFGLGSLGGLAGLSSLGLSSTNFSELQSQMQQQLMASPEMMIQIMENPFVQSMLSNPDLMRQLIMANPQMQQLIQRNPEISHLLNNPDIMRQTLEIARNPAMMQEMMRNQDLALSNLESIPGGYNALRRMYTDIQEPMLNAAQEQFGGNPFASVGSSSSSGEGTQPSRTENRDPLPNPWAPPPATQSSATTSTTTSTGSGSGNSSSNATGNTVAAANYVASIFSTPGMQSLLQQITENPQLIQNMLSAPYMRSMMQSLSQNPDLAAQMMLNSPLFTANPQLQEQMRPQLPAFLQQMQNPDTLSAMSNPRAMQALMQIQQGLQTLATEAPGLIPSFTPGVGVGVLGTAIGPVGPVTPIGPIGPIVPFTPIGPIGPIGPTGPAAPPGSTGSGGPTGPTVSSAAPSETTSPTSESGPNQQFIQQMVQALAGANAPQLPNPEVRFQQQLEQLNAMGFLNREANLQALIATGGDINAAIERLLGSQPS
UniProt P55036: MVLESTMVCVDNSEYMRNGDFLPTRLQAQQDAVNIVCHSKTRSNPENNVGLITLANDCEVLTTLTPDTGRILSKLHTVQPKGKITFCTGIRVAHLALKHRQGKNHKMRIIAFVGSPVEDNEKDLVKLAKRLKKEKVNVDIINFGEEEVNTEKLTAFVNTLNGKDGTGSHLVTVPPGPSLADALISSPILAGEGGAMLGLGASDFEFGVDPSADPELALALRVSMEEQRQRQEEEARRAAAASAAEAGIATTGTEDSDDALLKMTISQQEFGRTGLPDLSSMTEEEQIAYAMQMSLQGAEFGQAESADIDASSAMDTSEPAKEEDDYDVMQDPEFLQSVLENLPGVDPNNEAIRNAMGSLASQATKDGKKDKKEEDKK

Substance: hRpn10 lacking the RAZUL domain (from UniProt P55036)
- binding [1]: binds
- binding [2]: binds

From paper doi:10.1101/2022.09.29.510132
